Where “and” joins values, the source holds several entries; their conditions need not be identical. Equal entries are not always repeated. At least one read-out could not be matched to a standard name with certainty.
Assay: YidA phosphatase activity assay (malachite green orthophosphate detection), Michaelis-Menten analysis
Type: biochemical, Salmonella
Settings: substrate Glc-1-P

B1: YidA: recombinant Salmonella sugar-phosphate phosphatase of the HAD superfamily, overexpressed in E. coli SixPack cells; SUMO tag removed unless stated (protein, listed as Salmonella typhimurium)
chain: MAIKLIAIDMDGTLLLPDHTISPAVKNAIAAAREKGVNVVLTTGRPYAGVHSYLKELHMEQPGDYCITYNGALVQKAGDGSTVAQTALSYDDYRYLEKLSREVGSHFHALDRNTLYTANRDISYYTVHESYVATIPLVFCEAEKMDPNTQFLKVMMIDEPAVLDRAIARIPAEVKEKYTVLKSAPYFLEILDKRVNKGTGVKSLVEALGIKPEEVMAIGDQENDIAMIEYAGMGVAMDNAIPSVKEVANFVTKSNLEDGVAWAIEKFVLNPDHSSGHFPAR
modifications: Description of sequence: YidA
notes: recombinant Salmonella sugar-phosphate phosphatase of the HAD superfamily, overexpressed in E. coli SixPack cells; SUMO tag removed unless stated
  kcat/Km: 10600 ± 217 M⁻¹ s⁻¹ and 10400 M⁻¹ s⁻¹ and 10800 M⁻¹ s⁻¹

Reference: patent US20240247301A1, “DIAGNOSTIC ASSAY FOR CLASSIC INBORN GALACTOSEMIA” (Ohio State Innovation Foundation, priority 2022, published 2024)
